No constants are given. Whether binding was seen depends on the method and setting. Some binding calls cover weakened binding; strength is not graded here.
Experiments:
Experiment in all cases: pull-down; both purified
[1] = molecular target: GST-NPI-1 1–75 (IBB domain mutant) (human) (UniProt P52294)
[2] = molecular target: GST-NPI-1 404–541 (C-terminal region from the ninth ARM repeat to the acidic domain) (human) (UniProt P52294)
[3] = molecular target: GST-NPI-1 76–451 (ARM repeat domain lacking the tenth ARM repeat) (human) (UniProt P52294)
[4] = molecular target: GST-Qip1 1–68 (IBB domain mutant) (human) (UniProt O00629)
[5] = molecular target: GST-Qip1 392–537 (C-terminal region from the ninth ARM repeat to the acidic domain) (human) (UniProt O00629)
[6] = molecular target: GST-Qip1 69–439 (ARM repeat domain lacking the tenth ARM repeat) (human) (UniProt O00629)
[7] = molecular target: GST-tagged NPI-1 (importin α5), full-length (human) (UniProt P52294)
[8] = molecular target: GST-tagged Qip1 (importin α3), full-length (human) (UniProt O00629)

By UniProt entry, the sequences of proteins in these tests, tags left out. Where a name states a change or a piece, a line headed by the entry shows the natural chain unless it says otherwise. Residues count along the entry.
UniProt P52294: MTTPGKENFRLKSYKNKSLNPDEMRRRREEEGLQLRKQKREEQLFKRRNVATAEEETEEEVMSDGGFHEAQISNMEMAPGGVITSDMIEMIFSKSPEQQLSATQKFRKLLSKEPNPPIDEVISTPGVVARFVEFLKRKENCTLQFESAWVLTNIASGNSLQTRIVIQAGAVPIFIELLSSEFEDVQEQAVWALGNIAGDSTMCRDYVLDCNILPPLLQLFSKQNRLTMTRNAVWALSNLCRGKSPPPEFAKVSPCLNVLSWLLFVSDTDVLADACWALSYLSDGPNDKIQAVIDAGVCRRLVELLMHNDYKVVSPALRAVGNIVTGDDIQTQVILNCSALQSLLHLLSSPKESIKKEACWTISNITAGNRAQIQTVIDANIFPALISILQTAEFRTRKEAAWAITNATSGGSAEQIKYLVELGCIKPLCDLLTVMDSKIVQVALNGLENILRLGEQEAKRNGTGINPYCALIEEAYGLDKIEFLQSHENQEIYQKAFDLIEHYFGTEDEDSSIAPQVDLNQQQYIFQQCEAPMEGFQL
GST-NPI-1 1–75 (IBB domain mutant): residues 1-75 of P52294
GST-NPI-1 76–451 (ARM repeat domain lacking the tenth ARM repeat): residues 76-451 of P52294
GST-NPI-1 404–541 (C-terminal region from the ninth ARM repeat to the acidic domain): residues 404-538 of P52294
UniProt O00629: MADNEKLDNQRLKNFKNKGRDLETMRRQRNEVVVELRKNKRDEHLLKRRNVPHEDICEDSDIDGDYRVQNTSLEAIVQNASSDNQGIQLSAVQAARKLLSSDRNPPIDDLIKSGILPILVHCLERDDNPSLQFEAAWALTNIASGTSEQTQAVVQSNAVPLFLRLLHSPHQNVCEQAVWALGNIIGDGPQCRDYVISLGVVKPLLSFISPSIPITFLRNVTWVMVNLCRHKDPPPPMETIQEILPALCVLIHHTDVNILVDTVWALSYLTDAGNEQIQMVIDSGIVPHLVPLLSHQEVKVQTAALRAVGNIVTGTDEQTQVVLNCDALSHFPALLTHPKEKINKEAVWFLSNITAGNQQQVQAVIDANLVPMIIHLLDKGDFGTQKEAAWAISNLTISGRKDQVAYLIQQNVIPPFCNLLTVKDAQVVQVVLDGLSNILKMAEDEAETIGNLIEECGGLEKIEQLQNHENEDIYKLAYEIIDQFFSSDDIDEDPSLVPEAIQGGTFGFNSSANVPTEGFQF
GST-Qip1 1–68 (IBB domain mutant): residues 1-67 of O00629
GST-Qip1 69–439 (ARM repeat domain lacking the tenth ARM repeat): residues 68-439 of O00629
GST-Qip1 392–537 (C-terminal region from the ninth ARM repeat to the acidic domain): residues 392-521 of O00629
UniProt P12520: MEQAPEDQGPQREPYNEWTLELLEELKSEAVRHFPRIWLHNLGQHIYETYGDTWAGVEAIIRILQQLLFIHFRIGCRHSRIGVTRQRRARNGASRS

Measured: binding

Flag-mRFP-Flag-Vpr (from UniProt P12520 1-96)
binds: all assays above

— article PMC3218035, “Nuclear Exportin Receptor CAS Regulates the NPI-1–Mediated Nuclear Import of HIV-1 Vpr” (PLoS ONE, 2011)
